# Data from the supplement of paper PMC3334620.
# In all, about 33,000 sequences were measured (“E-score (-0.5 to 0.5)”: median about -0.015, highest 2% from about 0.3 on). The list shows a part of the results.
# Molecular target: T1, Abf1 (UniProt P14164)
# T1 sequence: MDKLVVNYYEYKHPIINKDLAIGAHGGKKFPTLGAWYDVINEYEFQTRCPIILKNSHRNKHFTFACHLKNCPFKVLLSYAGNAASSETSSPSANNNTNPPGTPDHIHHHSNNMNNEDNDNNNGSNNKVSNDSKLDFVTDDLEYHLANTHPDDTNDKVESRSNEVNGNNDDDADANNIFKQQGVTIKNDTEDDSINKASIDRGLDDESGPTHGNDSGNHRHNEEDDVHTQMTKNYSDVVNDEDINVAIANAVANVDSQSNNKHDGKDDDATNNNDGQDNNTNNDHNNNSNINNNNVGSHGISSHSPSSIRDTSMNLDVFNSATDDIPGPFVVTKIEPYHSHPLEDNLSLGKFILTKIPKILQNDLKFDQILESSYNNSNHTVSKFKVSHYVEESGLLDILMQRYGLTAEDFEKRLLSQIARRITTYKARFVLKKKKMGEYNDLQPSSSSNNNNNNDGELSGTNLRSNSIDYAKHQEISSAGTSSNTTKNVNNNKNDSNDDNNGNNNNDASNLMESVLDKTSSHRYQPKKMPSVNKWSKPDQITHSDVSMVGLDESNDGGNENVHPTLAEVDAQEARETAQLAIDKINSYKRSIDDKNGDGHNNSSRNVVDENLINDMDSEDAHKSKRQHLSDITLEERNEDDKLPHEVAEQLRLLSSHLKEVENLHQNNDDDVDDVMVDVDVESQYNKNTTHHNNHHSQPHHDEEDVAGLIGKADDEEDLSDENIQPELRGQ
# Experiment: PBM E-score (8-mer binding enrichment) (E-score (-0.5 to 0.5)); higher = stronger / more preferred TF binding
# Settings: protein concentration: 200 nM; construct: GST-full length
# Method in brief: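 For each ungapped eight-base word taken together with its reverse complement, the Universal PBM Analysis Suite assigned an E-score. Binding data came from GST-tagged yeast transcription factors, applied at about 100-200 nM, on universal all-10-mer Agilent arrays made double-stranded by primer extension. Fluorescent anti-GST marked bound protein, and scans were normalised with masliner.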
row,Sequence,PBM E-score
1,CTGGAGAC,-0.105
2,TGACTGCA,-0.0999
3,ATATAAAG,0.146
4,GGCGCATA,0.0602
5,TGCATCAA,0.00549
6,TGGCCTAA,-0.0262
7,AACCGTCT,-0.0069
8,ATCATCCA,0.232
9,CATGAGAC,0.0408
10,CTCTGAAG,-0.207
11,CAAGACCG,-0.137
12,ACTGCCTC,-0.111
13,GATAGTAA,-0.0163
14,GTCAAAAC,0.129
15,TATGTACA,-0.00779
16,AAAGCCAC,-0.0309
17,AGGCCCGC,-0.16
18,CACATCGC,0.0644
19,AAAACGTC,0.154
20,GTGAGCTA,-0.0446
21,CCCACTAG,-0.274
22,TCAGATGA,0.0431
23,GTAGGTGA,0.132
24,CGTAAGCC,0.0656
25,AGGGGCCA,-0.172

row,Sequence,PBM E-score
1,CGATGGCC,0.0627
2,CTCGACTA,-0.0531
3,AGTAATAG,0.0165
4,GCAGTACC,-0.138
5,CAGGGCAC,-0.125
6,AAGCGACG,0.0184
7,AACTCAAA,0.0455
8,ATCTGTAG,-0.0843
9,GCCACAGC,-0.0459
10,TACACGGA,0.329
11,AGATTGTA,0.0406
12,AAAAAGCC,0.0341
13,TATCTAAA,-0.00462
14,ATGGGGAG,-0.163
15,GGTTTCGA,-0.156
16,GCGCTCTA,-0.0693
17,TAACGCGA,0.179
18,CCGGTAAG,-0.0289
19,TGACGAAA,0.349
20,CTGTACAA,0.109
21,TACGGAGA,0.189
22,GATCGCGA,0.315
23,ACCTCTAT,-0.00449
24,ACTGACTA,0.0147
25,AAGCCGAA,-0.174

row,Sequence,PBM E-score
1,GTTTAATA,0.214
2,AAAACCTA,0.0977
3,CCGTACCC,0.267
4,CGCCGCCA,-0.114
5,AAGTAAAA,-0.128
6,TCCGGACA,0.0355
7,TACCTATA,0.0659
8,AATCCAAG,0.131
9,GCCACTAA,-0.149
10,ACTCGGCA,-0.0488
11,GCTCGTAA,0.118
12,AAGTGTCA,0.0251
13,GCACACAA,-0.00644
14,ACAAAAGC,-0.0295
15,GTGCTCCA,0.0884
16,CAAATGTG,0.122
17,AAGTGAAC,-0.121
18,AGGGAGAT,-0.148
19,AACGCTGC,-0.111
20,ATGATACC,0.291
21,GTACCTTA,0.0335
22,CAATGCAA,0.056
23,GCCTAACA,-0.02
24,ATTGGAAA,0.0769
25,AGTAAAAT,-0.0296

row,Sequence,PBM E-score
1,TATCAATA,0.0589
2,AACCACAC,0.0548
3,CTGACAGA,0.0348
4,CGGAGACC,-0.257
5,CTATTAAG,-0.0925
6,CGGGCTCA,-0.165
7,AAGCATCC,-0.115
8,TCACGGAA,0.261
9,AGCCGCCA,-0.255
10,AGGCGATA,0.0263
11,GTGTTACA,-0.0527
12,AAACGCTA,-0.201
13,GACGACAA,0.347
14,CGTCAGAG,0.0129
15,GCCGTAGC,0.0651
16,CCTACAAA,-0.00335
17,GCACCACC,-0.264
18,ATGTCCCG,-0.00557
19,CACTGGCG,-0.0444
20,GGGCCTAC,-0.304
21,CAATACAC,0.0116
22,ACCCGAGA,-0.138
23,AGACCCGG,-0.273
24,CGGTGAGA,0.149
25,ACTGTGCT,0.113

row,Sequence,PBM E-score
1,ACCCATTG,-0.116
2,ACGTTGCC,-0.156
3,GCAACCAC,-0.0578
4,CTGGTCTC,-0.207
5,GAACTGAC,-0.00514
6,AGTTGGAG,0.0751
7,CCACTAAA,-0.22
8,ACAACGCA,-0.00182
9,CCTAGAAC,0.0754
10,ATGGAATA,0.0752
11,AAAACCAG,-0.143
12,CCTATCTA,-0.0942
13,AATACCCC,-0.107
14,ATTTGATC,0.0937
15,CGCCTCAG,-0.107
16,GATTGGAC,-0.0886
17,ATCCGTCG,0.101
18,TAATCCCA,-0.0715
19,ACGGTGAT,0.293
20,AGCAACAA,0.0853
21,CAACGCGC,0.0401
22,AATATCTC,0.0817
23,ACTCATTA,0.164
24,ACAGAGCA,-0.171
25,GTCCTCGA,-0.0187

# 5 entries picked at random from those above, as already listed:
row,Sequence,PBM E-score
16,GATTGGAC,-0.0886
22,AATATCTC,0.0817
15,CGCCTCAG,-0.107
4,CTGGTCTC,-0.207
5,GAACTGAC,-0.00514

# Later entries.

row,Sequence,PBM E-score
1,ATATTGCG,0.114
2,ATTTTGCC,-0.161
3,ATTGGGTG,0.066
4,ACAGAGAT,-0.0868
5,CACGCACG,-0.00936
6,GTCCGGAA,0.114
7,ACTAGGCA,-0.0379
8,ACCGTGGG,0.0314
9,TGCAGTAA,-0.0447
10,CATCGTGG,0.0192
11,AGGAGGGA,-0.249
12,GTTTCAAA,0.153
13,AGGTCGCA,-0.01
14,ACATACTC,-0.106
15,AATGTAGC,-0.0118
16,ACGGCAGC,0.134
17,CGTAGTGA,0.189
18,AGATAAAT,0.0712
19,GACACCAC,-0.0604
20,TAAAGAGA,-0.0206
21,GTCACTCA,0.238
22,CAGGCGGA,0.0934
23,CAGCGATC,0.0738
24,TGATAACA,0.341
25,GCAGCTCA,0.0042

# Single entries from the list:
# ATTTTGCC | PBM E-score: -0.161
# TATGTACA | PBM E-score: -0.00779

# Following part:

row,Sequence,PBM E-score
1,ACTGCGTG,-0.196
2,GCAATCTA,-0.149
3,AACACCGC,-0.137
4,AAAATCAA,0.0207
5,CCACCTGA,-0.0561
6,GGAACGCC,-0.0866
7,ACGGCCTG,0.117
8,ATTTGCAA,0.0171
9,AGTTCGGA,-0.0882
10,ATCACTAC,0.375
11,TGTCTTAA,0.0939
12,CAGAGTAA,-0.22
13,ACGGGAAG,0.0734
14,GTTCCTTA,-0.00733
15,CAGAGATA,-0.00493
16,CTGGCTCC,-0.316
17,AGAGCCTC,-0.134
18,CGGCTACC,-0.0536
19,AATGCGTC,0.088
20,ACTAGCCC,-0.0228
21,AGAGGCAG,-0.121
22,AATAGTGA,0.358

# Some of the entries so far, bar-delimited:
row | Sequence | PBM E-score
1 | ACTGCGTG | -0.196
17 | AGAGCCTC | -0.134
21 | AGAGGCAG | -0.121
